Some of the results follow.
What follows are sequences tested against T1, OsSMF1 (Oryza sativa, UniProt Q6ZLB0 1-436) (assay: protein-binding microarray (RPBM); PBS, 2% BSA, 51.3 ng/ul salmon testes DNA, 50 uM zinc acetate, 200 nM TF, 25 C, 1 h; high values mean tight binding). Conditions: protein: recombinant; tags: N-terminal polyhistidine and DsRed monomer fusion (pET32a); chain copies: 2; label: CyDye5-dUTP incorporated in the synthesized complementary strand; 3' TTTTT single-stranded linker to array surface; dsDNA, one strand shown.
T1 sequence: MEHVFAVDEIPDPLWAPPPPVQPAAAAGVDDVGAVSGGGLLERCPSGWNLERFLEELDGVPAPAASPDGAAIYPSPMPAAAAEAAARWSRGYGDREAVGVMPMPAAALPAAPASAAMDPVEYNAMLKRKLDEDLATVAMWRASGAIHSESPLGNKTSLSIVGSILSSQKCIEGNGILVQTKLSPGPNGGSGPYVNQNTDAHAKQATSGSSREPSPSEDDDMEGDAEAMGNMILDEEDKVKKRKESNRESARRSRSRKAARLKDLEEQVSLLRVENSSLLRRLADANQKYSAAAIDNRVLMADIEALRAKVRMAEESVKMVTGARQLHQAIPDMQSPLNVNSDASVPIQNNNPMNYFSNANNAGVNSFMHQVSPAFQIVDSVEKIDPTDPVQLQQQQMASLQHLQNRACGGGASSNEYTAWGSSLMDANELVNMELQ
In short: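 Using Ni–NTA, transcription factors fused N-terminally to polyhistidine and DsRed were purified after expression in E. coli BL21-CodonPlus. These were incubated at 200 nM with a blocked, double-stranded custom Agilent array for 1 h at 25 °C in a buffer containing 50 µM zinc acetate, and the array was washed. The binding signal is per-feature fluorescence intensity (arbitrary units) on an Axon 4000B scanner.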

Sequence | binding signal
CAATTCATCTATAACTAATTTAATAGTCAATTCATACAATCGGAGTCACCTAGTGCAG | 44100 fluorescence intensity (a.u.)
ATATCCGGTTTTACAGTTAGGGGATGATTTTGTAACTCGACGGAGTCACCTAGTGCAG | 4600 fluorescence intensity (a.u.)
CGCATGCAGGTAATCCACTACTACGTACTCCTGTATGCATCGGAGTCACCTAGTGCAG | 3510 fluorescence intensity (a.u.)
CCACCGTCGCCGATTCCACCGCTGCCACGGACAACCCCGCCGGAGTCACCTAGTGCAG | 3820 fluorescence intensity (a.u.)
TAGAATGCCATGTCAGTGAAACCACCCATATATACTACCACGGAGTCACCTAGTGCAG | 5710 fluorescence intensity (a.u.)
TTACTTGTATATGAGCATGCATGCTTAGCTCAATCCCTTCCGGAGTCACCTAGTGCAG | 3860 fluorescence intensity (a.u.)
CAAACCATCGCATGTGCGGACGCGTTAATGTCGTTATTACCGGAGTCACCTAGTGCAG | 3200 fluorescence intensity (a.u.)
GCTACCCCGTACTTCACCGCCTGAGTCACTAACCCAAGCCCGGAGTCACCTAGTGCAG | 6550 fluorescence intensity (a.u.)
TTGTTTATTTTCGTTGTCACGGGGTATTTTCTAGTTATCTCGGAGTCACCTAGTGCAG | 3770 fluorescence intensity (a.u.)
GTCCACGGCGCCGCCGCACGGGACGTCGACCTGCACCGACCGGAGTCACCTAGTGCAG | 16000 fluorescence intensity (a.u.)
ATGGTTACGTAAATTCTTAGTACTAACACTGACATGTCATCGGAGTCACCTAGTGCAG | 7000 fluorescence intensity (a.u.)
CCGGAGGTCGAGCGCCGCGTCCGTGAGGGACACGCCGCCGCGGAGTCACCTAGTGCAG | 3170 fluorescence intensity (a.u.)
GACGGGGCGGTGACAGCTACCTCAGCGAGGCGGCGTCGGCCGGAGTCACCTAGTGCAG | 4360 fluorescence intensity (a.u.)
TGCGCAAAGAATCCGGCTGGGTGCCTGACGTGGATCCTTGCGGAGTCACCTAGTGCAG | 17800 fluorescence intensity (a.u.)
AGAAACTTGTATGCCAATATGTGTCATGCGACCATCTCTGCGGAGTCACCTAGTGCAG | 5920 fluorescence intensity (a.u.)
TTCCCTAGTGGATGCATGCATTCATACCATAGGTCAGCTGCGGAGTCACCTAGTGCAG | 3450 fluorescence intensity (a.u.)
GAGAACACCCGGGTGGCGCGCCGTGACACGCACGCGCCCCCGGAGTCACCTAGTGCAG | 4260 fluorescence intensity (a.u.)
GCGTCGGCGTCGTCGGCCGTCAACGTCAGCGAGCTCGTCACGGAGTCACCTAGTGCAG | 6120 fluorescence intensity (a.u.)
GTCGTTTATGCGTACGTAAGAGATTAGTTCCCATCACATTCGGAGTCACCTAGTGCAG | 3320 fluorescence intensity (a.u.)
TGCGTTACCTTTTATAATAGCCGACGTGACACGCCAAAACCGGAGTCACCTAGTGCAG | 3430 fluorescence intensity (a.u.)
ACCGCCGGGGCTGACCTCTCCTCCGATTGCCCGACGCCCGCGGAGTCACCTAGTGCAG | 25100 fluorescence intensity (a.u.)

An excerpt from further up, as a working copy:
Sequence | binding signal
CAAACCATCGCATGTGCGGACGCGTTAATGTCGTTATTACCGGAGTCACCTAGTGCAG | 3200 fluorescence intensity (a.u.)
GCTACCCCGTACTTCACCGCCTGAGTCACTAACCCAAGCCCGGAGTCACCTAGTGCAG | 6550 fluorescence intensity (a.u.)
TTGTTTATTTTCGTTGTCACGGGGTATTTTCTAGTTATCTCGGAGTCACCTAGTGCAG | 3770 fluorescence intensity (a.u.)
GTCCACGGCGCCGCCGCACGGGACGTCGACCTGCACCGACCGGAGTCACCTAGTGCAG | 16000 fluorescence intensity (a.u.)
ATGGTTACGTAAATTCTTAGTACTAACACTGACATGTCATCGGAGTCACCTAGTGCAG | 7000 fluorescence intensity (a.u.)
CCGGAGGTCGAGCGCCGCGTCCGTGAGGGACACGCCGCCGCGGAGTCACCTAGTGCAG | 3170 fluorescence intensity (a.u.)
GACGGGGCGGTGACAGCTACCTCAGCGAGGCGGCGTCGGCCGGAGTCACCTAGTGCAG | 4360 fluorescence intensity (a.u.)
TGCGCAAAGAATCCGGCTGGGTGCCTGACGTGGATCCTTGCGGAGTCACCTAGTGCAG | 17800 fluorescence intensity (a.u.)
AGAAACTTGTATGCCAATATGTGTCATGCGACCATCTCTGCGGAGTCACCTAGTGCAG | 5920 fluorescence intensity (a.u.)
TTCCCTAGTGGATGCATGCATTCATACCATAGGTCAGCTGCGGAGTCACCTAGTGCAG | 3450 fluorescence intensity (a.u.)
GAGAACACCCGGGTGGCGCGCCGTGACACGCACGCGCCCCCGGAGTCACCTAGTGCAG | 4260 fluorescence intensity (a.u.)
GCGTCGGCGTCGTCGGCCGTCAACGTCAGCGAGCTCGTCACGGAGTCACCTAGTGCAG | 6120 fluorescence intensity (a.u.)
GTCGTTTATGCGTACGTAAGAGATTAGTTCCCATCACATTCGGAGTCACCTAGTGCAG | 3320 fluorescence intensity (a.u.)

More entries:

Sequence | binding signal
ACTGCTACTTGATCAAATGATGCTGAGTAGATCTACTTTACGGAGTCACCTAGTGCAG | 5080 fluorescence intensity (a.u.)
TAAGTATGAAAAGAAACATAATATCTAGACAATCAAGCTGCGGAGTCACCTAGTGCAG | 4330 fluorescence intensity (a.u.)
TATGTTGGGCACCGTTTGTGTTCATCAGCCCATCACTCTTCGGAGTCACCTAGTGCAG | 3420 fluorescence intensity (a.u.)
GATGCGCGGGCCTCAACGTTCAGTGGCGGCACGCCACACGCGGAGTCACCTAGTGCAG | 22900 fluorescence intensity (a.u.)
AGGCGGCGATGGGCCTTGGGCTTTGATCCGTGGGCTGTGGCGGAGTCACCTAGTGCAG | 5820 fluorescence intensity (a.u.)
CTCTCATCAAATAATATCTTGCAGCAGTTTGCTGATGCATCGGAGTCACCTAGTGCAG | 3620 fluorescence intensity (a.u.)
TGGCTTGTTGATGCTTTGCTGGCGTGTTTTGGTTTCATTTCGGAGTCACCTAGTGCAG | 6270 fluorescence intensity (a.u.)
TCCAGGGAGCCGCGGTGGCATATGTTGCTGACATGTTTTCCGGAGTCACCTAGTGCAG | 5340 fluorescence intensity (a.u.)
GCGGAGGAGGTGGTGGTGGTGGAGGAGGAGGAGGCCAAGGCGGAGTCACCTAGTGCAG | 4030 fluorescence intensity (a.u.)
GCAGCAACAACCGCCGCGCCATTGATGACTAATTGAGATCCGGAGTCACCTAGTGCAG | 4120 fluorescence intensity (a.u.)
AACAGTCCTGCGTGTTGACTTGGCTAGTTGGACCAGGTCACGGAGTCACCTAGTGCAG | 25500 fluorescence intensity (a.u.)
CCAGATTTTAACATGTTTTACTGCCTTACACGTCCACTGTCGGAGTCACCTAGTGCAG | 3840 fluorescence intensity (a.u.)
CCACCTTTAAATCCATGTGGATCCCACCCCACCGCCTCCTCGGAGTCACCTAGTGCAG | 3660 fluorescence intensity (a.u.)
ATATCGACTACACACTGTTCTTGGCTACATCGATTGATTGCGGAGTCACCTAGTGCAG | 4840 fluorescence intensity (a.u.)
CAATACCAATACTCAACCATTACATATATATGTAATTGTGCGGAGTCACCTAGTGCAG | 3430 fluorescence intensity (a.u.)
CCGTATGCAAGGGGAAAGGAAACGCAATCGGAGTATGCTGCGGAGTCACCTAGTGCAG | 28600 fluorescence intensity (a.u.)
TTTATCTAATTAAAATATATTTATAGCTGACTAATAGTCTCGGAGTCACCTAGTGCAG | 3480 fluorescence intensity (a.u.)
CAGAGAAGAACGTCATCACGTGGACAGCGATGATCTCTGGCGGAGTCACCTAGTGCAG | 5620 fluorescence intensity (a.u.)
ATTCCCGACATCCAAACGGGAATCGACTCGCCGTTGCTGACGGAGTCACCTAGTGCAG | 4500 fluorescence intensity (a.u.)
AACACCGCCATTGAAGCCTCATCGAGCTCTCTTACCAACGCGGAGTCACCTAGTGCAG | 3230 fluorescence intensity (a.u.)
AAGGGCAGCTCAGTCATGGCTGCCACGAGGACAGATGTGGCGGAGTCACCTAGTGCAG | 4760 fluorescence intensity (a.u.)

From PMC7819943, “Rice protein-binding microarrays: a tool to detect cis-acting elements near promoter regions in rice”
